Consider one sequence from PMC5522078, “Discovery and characterization of small molecules targeting the DNA-binding ETS domain of ERG in prostate cancer” (Oncotarget, 2017).

Construct, isoform or probe ends are uncertain for at least one entry. Weaker means in comparison with the reference protein, sequence or condition of that experiment. For some of these results: Protein sequences can lack the tags named with them. For some of these results: At least one result comes from cells or an extract, where the contact may be indirect. For some of these results: At least one verdict was read from the data and is not stated in words by the source.

For series [1], the system named is ERG in VCaP nuclear extract. Description: EMSA. The following applies: EMSA: protein stored in 20 mM sodium phosphate, 200 mM NaCl, 2 mM DTT, 0.1 mM EDTA, pH 6.5, reaction with 3% glycerol, 0.2 mg/mL BSA, 1 nM dsDNA, room temperature 1 h, protein in an extract, label: Alexa-488.
Series [2] deals with T1, ERG-ETS domain (UniProt P11308).
T1 sequence (looked up): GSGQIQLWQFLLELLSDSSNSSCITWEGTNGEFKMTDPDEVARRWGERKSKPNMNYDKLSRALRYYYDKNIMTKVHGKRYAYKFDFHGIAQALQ
Description: EMSA. The note with it: VPC-18005 2 uM-8 mM, dose-dependent disruption (compound KI ~250 uM), 4 nM protein, 1 nM DNA; EMSA: protein stored in 20 mM sodium phosphate, 200 mM NaCl, 2 mM DTT, 0.1 mM EDTA, pH 6.5; reaction with 3% glycerol, 0.2 mg/mL BSA, 1 nM dsDNA, room temperature 1 h; recombinant protein; residues 307-400; protein details: His6 removed by thrombin; label: Alexa-488.

As to “CGGCCAAGCCGGAAGTGAGTG (double strand) [ETS consensus GGAA probe]”, the binding result in series [1] (VCaP nuclear extract, no compound) was “binds”; in series [1] (VPC-18005 4 uM-8 mM, 55 ng/ul nuclear extract), “binds more weakly”; in series [1] (YK-4-279 4 uM-8 mM, no disruption, 55 ng/ul nuclear extract), “binds”; in series [2] it was “binds more weakly”.
